Literature values, collected in patent publication US8003691B2, “Antiviral and comma antibacterial pharmaceutical compositions of cantharidic anhydride and method of preparation thereof” (priority 2001, dated 2011).
At least one structure is not confirmed: it was looked up by name or label, or the drawing left a doubt.

System: tubercule bacillus
Conditions: reported in literature; cited from earlier work

CO[C@H]1/C=C/O[C@@]2(C)Oc3c(C)c(O)c4c(O)c(c(/C=N/N5CCN(C)CC5)c(O)c4c3C2=O)NC(=O)/C(C)=C\C=C\[C@H](C)[C@H](O)[C@@H](C)[C@@H](O)[C@@H](C)[C@H](OC(C)=O)[C@@H]1C [rifampicin]
minimum concentration for tubercule bacillus deactivation: 25 ppm
